Literature values, collected in patent publication US9840547B2, “Hepatic insulin sensitizing substance and test meal for insulin sensitization” (SciMar Ltd., priority 2013, dated 2017).
At least one structure is not confirmed: it was looked up by name or label, or the drawing left a doubt.

Settings: literature; cited from earlier work

C[C@H](N)C(=O)NCC(=O)N[C@H]1CSSC[C@@H](C(=O)O)NC(=O)[C@H](CO)NC(=O)[C@H]([C@@H](C)O)NC(=O)[C@H](Cc2ccccc2)NC(=O)[C@H]([C@@H](C)O)NC(=O)[C@H](CCCCN)NC(=O)[C@H](Cc2c[nH]c3ccccc23)NC(=O)[C@H](Cc2ccccc2)NC(=O)[C@H](Cc2ccccc2)NC(=O)[C@H](CC(N)=O)NC(=O)[C@H](CCCCN)NC1=O [somatostatin]
hypoglycemic action: has no hypoglycemic action
